Measured values: US20200283538A1
Results are given in words; binding and its absence hold for the method and conditions named. Some binding calls cover weakened binding; strength is not graded here.

By UniProt entry, the sequences of proteins in these tests, tags left out. Residues count along the entry.
UniProt Q02223, residues 1-54: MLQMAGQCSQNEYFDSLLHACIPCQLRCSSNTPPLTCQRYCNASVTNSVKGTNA

Assays:
[1] = target: CONSTRUCT 5 (anti-BCMA chimeric antigen receptor with human Ikaros 3 degron sequences at the C-terminus) (human); test: flow cytometry of transfected (ZsGreen positive) NFAT-luc2 Jurkat cells stained with AlexaFluor 647 BCMA-Fc after 24 h in DMSO or 10 µM lenalidomide
[2] = target: CONSTRUCT 4 (anti-BCMA chimeric antigen receptor without a degron signal) (human); test: as above

binding [1]: binds
binding [2]: binds
Substance: AlexaFluor 647 conjugated BCMA-Fc (from UniProt Q02223 1-54) (Fc fusion)
